Assay results taken from PubChem BioAssay AID230 (DTP/NCI, 2004).
The list shows only some results of the screen, not a fair sample: it gathers tests that were run many times, whatever their T/C, doses with no T/C, and many T/C values between a quarter and a half above the control. Further doses and runs are listed elsewhere. T/C: endpoint of the treated group in % of that of the vehicle group. Some doses have a count of surviving animals in place of a T/C: the source files T/C as zero there, which appears to mark a toxic dose or a test without result, not a measured value. Some doses without a T/C left all or most animals alive at the check, yet need not have been tolerated: survival well below the control is almost never listed, so the zero probably covers shortened survival too. Survivors were counted at the toxicity check, usually on the fifth day, unless a day is given; later deaths do not show. Schedule codes are those of the source, taken here to give the interval after Q, in days (D) or hours (H), and the number of doses after X. Some doses were run more than once; their values stand side by side, smallest first. Brackets with × count equal records among those shown. For survival time, the PubChem record calls one and a half times the control and up active, and a quarter to a half above the control has no call in these data; cut-offs in other NCI protocols can differ.

Tested on: C3H/He mice, Gardner lymphosarcoma 6C3HED ip, survival T/C
Assay: NCI In Vivo Anticancer Drug Screen. Data for tumor model Lymphosarcoma Gardner 6C3HED (intraperitoneal) in C3H/He mice
Settings: higher T/C = longer survival
Method: The antitumor activity of compounds was measured in mice bearing transplantable tumors. Survival or tumor size were measured and the results are expressed as the measurement made in the treated group (T) divided by the measurement made in the vehicle treated control group (C). The tumor model used in this assay is Lymphosarcoma Gardner 6C3HED (intraperitoneal) in C3H/He mice

[1] = T/C endpoint: survival time, mean or median, dose: 60.0 mg/kg/injection, schedule: Q01DX010 (ip), vehicle: saline
[2] = T/C endpoint: survival time, mean or median, dose: 120.0 mg/kg/injection, schedule: Q01DX010 (ip), vehicle: saline
[3] = T/C endpoint: survival time, mean or median, dose: 25.0 mg/kg/injection, schedule: Q01DX010 (ip), vehicle: saline
[4] = T/C endpoint: survival time, mean or median, dose: 0.5 mg/kg/injection, schedule: Q01DX010 (ip), vehicle: saline
[5] = T/C endpoint: survival time, mean or median, dose: 1.0 mg/kg/injection, schedule: Q01DX010 (ip), vehicle: saline
[6] = T/C endpoint: survival time, mean or median, dose: 500.0 micrograms/kg/injection, schedule: Q01DX010 (ip), vehicle: saline
[7] = T/C endpoint: survival time, mean or median, dose: 2.0 mg/kg/injection, schedule: Q01DX010 (ip), vehicle: saline
[8] = T/C endpoint: survival time, mean or median, dose: 4.0 mg/kg/injection, schedule: Q01DX010 (ip), vehicle: saline
[9] = T/C endpoint: survival time, mean or median, dose: 1.25 mg/kg/injection, schedule: Q01DX010 (ip), vehicle: saline
[10] = T/C endpoint: survival time, mean or median, dose: 8.0 mg/kg/injection, schedule: Q01DX010 (ip), vehicle: saline
[11] = T/C endpoint: survival time, mean or median, dose: 100.0 mg/kg/injection, schedule: Q01DX010 (ip), vehicle: saline
[12] = T/C endpoint: survival time, mean or median, dose: 62.5 mg/kg/injection, schedule: Q01DX010 (ip), vehicle: saline
[13] = T/C endpoint: survival time, mean or median, dose: 50.0 mg/kg/injection, schedule: Q01DX010 (ip), vehicle: saline
[14] = T/C endpoint: survival time, mean or median, dose: 16.0 mg/kg/injection, schedule: Q01DX010 (ip), vehicle: saline
[15] = T/C endpoint: survival time, mean or median, dose: 32.0 mg/kg/injection, schedule: Q01DX010 (ip), vehicle: saline
[16] = T/C endpoint: survival time, mean or median, dose: 12.5 mg/kg/injection, schedule: Q01DX010 (ip), vehicle: saline
[17] = T/C endpoint: survival time, mean or median, dose: 200.0 mg/kg/injection, schedule: Q01DX010 (ip), vehicle: saline
[18] = T/C endpoint: survival time, mean or median, dose: 6.25 mg/kg/injection, schedule: Q01DX010 (ip), vehicle: saline
[19] = T/C endpoint: survival time, mean or median, dose: 10.0 mg/kg/injection, schedule: Q01DX010 (ip), vehicle: saline
[20] = T/C endpoint: survival time, mean or median, dose: 64.0 mg/kg/injection, schedule: Q01DX010 (ip), vehicle: saline
[21] = T/C endpoint: survival time, mean or median, dose: 128.0 mg/kg/injection, schedule: Q01DX010 (ip), vehicle: saline

C[N+](C)(C)c1ncnc2nc[nH]c12
survivor count [1]: 6 of 6
survivor count [2]: 6 of 6

O=P1(N(CCCl)CCCl)NCCCO1 (configuration not stated)
T/C (T/C endpoint: median survival time, dose: 20.0 mg/kg/injection, schedule: Q01DX003 (ip), vehicle: saline): 145 % of control
survivor count (T/C endpoint: median survival time, dose: 50.0 mg/kg/injection, schedule: Q01DX007 (ip), vehicle: saline): 5 of 6
T/C [3]: 126 % of control

CO[C@H](C(=O)[C@@H](O)[C@@H](C)O)[C@@H]1Cc2cc3cc(OC4CC(OC5CC(O)C(O)C(C)O5)C(O)C(C)O4)c(C)c(O)c3c(O)c2C(=O)[C@H]1OC1CC(OC2CC(OC3CC(C)(O)C(O)C(C)O3)C(O)C(C)O2)C(O)C(C)O1 (some centres not stated)
T/C [4]: 126 % of control

CC(=O)NC1=C(N2CC2)C(=O)C(NC(C)=O)=C(N2CC2)C1=O
survivor count [5]: 6 of 6
survivor count [6]: 6 of 6

Nc1nc(F)nc2c1ncn2C1OC(CO)C(O)C1O (configuration not stated)
survivor count [7]: 6 of 6
survivor count [8]: 6 of 6
survivor count (T/C endpoint: survival time, mean or median, dose: 62.5 micrograms/kg/injection, schedule: Q01DX010 (ip), vehicle: saline): 6 of 6
survivor count (T/C endpoint: survival time, mean or median, dose: 125.0 micrograms/kg/injection, schedule: Q01DX010 (ip), vehicle: saline): 6 of 6
survivor count [6]: 6 of 6

O=C(O)c1[nH]c(=O)[nH]c(=O)c1F
survivor count (T/C endpoint: survival time, mean or median, dose: 0.63 mg/kg/injection, schedule: Q01DX010 (ip), vehicle: saline): 6 of 6
survivor count [9]: 6 of 6

N#Cc1cn(C2OC(CO)C(O)C2O)c2ncnc(N)c12 (configuration not stated)
survivor count (T/C endpoint: survival time, mean or median, dose: 63.0 micrograms/kg/injection, schedule: Q01DX010 (ip), vehicle: saline): 6 of 6
survivor count (T/C endpoint: survival time, mean or median, dose: 250.0 micrograms/kg/injection, schedule: Q01DX010 (ip), vehicle: saline): 5 of 6

Nc1nc(=S)c2ncn(C3OC(CO)C(O)C3O)c2[nH]1 (configuration not stated)
survivor count (T/C endpoint: median survival time, dose: 16.0 mg/kg/injection, schedule: Q01DX009 (ip), vehicle: saline): 9 of 10
survivor count [8]: 6 of 6
survivor count [10]: 6 of 6

COS(C)(=O)=O
survivor count [11]: 6 of 6

Cn1c(N)nc2nc[nH]c2c1=S
survivor count (T/C endpoint: survival time, mean or median, dose: 80.0 mg/kg/injection, schedule: Q01DX010 (ip), vehicle: saline): 6 of 6

c1ccc(CCSc2ncnc3nc[nH]c23)cc1
survivor count [12]: 6 of 6

CC(=O)Nc1ccc2nc3ccc(NC(C)=O)cc3[n+](-c3ccccc3)c2c1
survivor count [13]: 5 of 6

CC(CCC(C)OS(C)(=O)=O)OS(C)(=O)=O (configuration not stated)
survivor count [14]: 6 of 6
survivor count [15]: 6 of 6

C=CC(CN1CC1)OC(C)=O (configuration not stated)
survivor count [10]: 6 of 6
survivor count [14]: 6 of 6

CCN(CC)CCCC(C)Nc1c2ccc(Cl)cc2nc2ccc(OC)cc12 (configuration not stated)
survivor count [16]: 6 of 6
survivor count [3]: 6 of 6
survivor count [11]: 5 of 6
survivor count [17]: 0 of 6

O=[n+]1c2c(n([O-])c3ccccc31)-c1cccc3cccc-2c13
survivor count [18]: 6 of 6
survivor count [16]: 6 of 6
survivor count [3]: 6 of 6
survivor count [13]: 4 of 6
survivor count [11]: 6 of 6
survivor count [17]: 0 of 6

O=c1[nH]cc(F)c(=O)[nH]1
T/C [19]: 143 % of control

N[C@@H](Cc1ccc(N(CCCl)CCCl)cc1)C(=O)O
T/C [5]: 130 % of control

NCC(=O)O
survivor count (T/C endpoint: median survival time, dose: 1500.0 mg/kg/injection, schedule: Q04HX020 (ip), vehicle: saline): 6 of 6

Nc1ncnc2c1ccn2C1OC(CO)C(O)C1O (configuration not stated)
survivor count [4]: 6 of 6
survivor count [5]: 5 of 6
survivor count [7]: 5 of 6

COc1cc(-c2ccc(Nc3ccccc3C(=O)O)c(OC)c2)ccc1N
survivor count (T/C endpoint: survival time, mean or median, dose: 20.0 mg/kg/injection, schedule: Q01DX010 (ip), vehicle: saline): 7 of 7

CN(C)c1ccc(/C=C/c2ccnc3ccccc23)cc1
survivor count [20]: 6 of 6
survivor count [21]: 6 of 6

Nc1nc([Se])c2ncn(C3OC(CO)C(O)C3O)c2n1 (configuration not stated)
survivor count (T/C endpoint: median survival time, dose: 32.0 mg/kg/injection, schedule: Q01DX009 (ip), vehicle: saline): 8 of 10

[I][Hg][CH2]C1COC([CH2][Hg][I])CO1 (configuration not stated)
survivor count (T/C endpoint: survival time, mean or median, dose: 0.78 mg/kg/injection, schedule: Q01DX010 (ip), vehicle: saline): 6 of 6
survivor count [18]: 6 of 6
survivor count [16]: 6 of 6
survivor count [3]: 5 of 6
survivor count [13]: 0 of 6

CN(C)[C@@H]1C(=O)C(C(N)=O)=C(O)[C@@]2(O)C(=O)C3=C(O)c4c(O)cccc4C[C@H]3C[C@@H]12
survivor count (T/C endpoint: survival time, mean or median, dose: 1.88 mg/kg/injection, schedule: Q01DX010 (ip), vehicle: saline): 6 of 6
survivor count (T/C endpoint: survival time, mean or median, dose: 30.0 mg/kg/injection, schedule: Q01DX010 (ip), vehicle: saline): 6 of 6
survivor count [1]: 5 of 6
survivor count [2]: 0 of 6

Nc1ncnc2c1ncn2C1OC(CO)C(O)C1O (configuration not stated)
survivor count (T/C endpoint: median survival time, dose: 1.56 mg/kg/injection, schedule: Q11DX018 (ip), vehicle: saline with Tween-80): 10 of 10
survivor count (T/C endpoint: median survival time, dose: 3.13 mg/kg/injection, schedule: Q11DX018 (ip), vehicle: saline with Tween-80): 10 of 10
survivor count (T/C endpoint: median survival time, dose: 6.25 mg/kg/injection, schedule: Q11DX018 (ip), vehicle: saline with Tween-80): 10 of 10

CC[n+]1c(-c2ccccc2)c2cc(N)ccc2c2ccc(N)cc21
T/C [9]: 132 % of control
T/C (T/C endpoint: survival time, mean or median, dose: 2.5 mg/kg/injection, schedule: Q01DX010 (ip), vehicle: saline): 137 % of control
T/C (T/C endpoint: survival time, mean or median, dose: 5.0 mg/kg/injection, schedule: Q01DX010 (ip), vehicle: saline): 146 % of control
T/C [19]: 144 % of control

CCOC(=O)NP(=O)(N1CC1)N1CC1
T/C [19]: 135 % of control

N#[N+]c1cnc([O-])[nH]c1=O
survivor count [19]: 5 of 6

CN(Cc1cnc2nc(N)nc(N)c2n1)c1ccc(C(=O)N[C@@H](CCC(=O)O)C(=O)O)cc1
survivor count (T/C endpoint: median survival time, dose: 0.5 mg/kg/injection, schedule: Q01DX009 (ip), vehicle: sodium bicarbonate): 6 of 6
survivor count (T/C endpoint: median survival time, dose: 2.0 mg/kg/injection, schedule: Q01DX009 (ip), vehicle: sodium bicarbonate): 5 of 6 and 6 of 6 (2×)

CCCCn1cnc2c(=S)nc[nH]c21
survivor count [7]: 6 of 6
survivor count [15]: 6 of 6
survivor count [20]: 6 of 6
survivor count [21]: 6 of 6

[N-]=[N+]=CC(=O)CCC(N)C(=O)O (configuration not stated)
T/C (T/C endpoint: survival time, mean or median, dose: 0.2 mg/kg/injection, schedule: Q01DX010 (ip), vehicle: saline): 131 and 135 % of control

Cc1cc2nc3c(=O)[nH]c(=O)nc-3n(CC(O)C(O)C(O)C(O)CO)c2cc1C (configuration not stated)
survivor count [13]: 6 of 6
survivor count [17]: 6 of 6

COc1ccc2c(c1OC)C(=O)O[C@@H]2[C@H]1c2c(cc3c(c2OC)OCO3)CCN1C
survivor count (T/C endpoint: survival time, mean or median, dose: 15.6 mg/kg/injection, schedule: Q01DX010 (ip), vehicle: saline): 6 of 6
survivor count [12]: 6 of 6
survivor count (T/C endpoint: survival time, mean or median, dose: 125.0 mg/kg/injection, schedule: Q01DX010 (ip), vehicle: saline): 5 of 6
survivor count (T/C endpoint: survival time, mean or median, dose: 250.0 mg/kg/injection, schedule: Q01DX010 (ip), vehicle: saline): 6 of 6

CS(=O)(=O)OCCC(=O)N1CCN(C(=O)CCOS(C)(=O)=O)CC1
T/C [16]: 130 % of control
T/C [3]: 129 and 138 % of control
survivor count [17]: 5 of 6
